This is one part of the list. Shown are side measurements of this screen, not its main read-out; they come without a call. Compounds called inactive in the main read-out are mostly missing here. Words in brackets tell the shape of the fitted curve; partial curves, single points and poor fits give uncertain potencies.
Assay: IkB Signaling
Settings: ABC-DLBCL IkBa-CBG/CBR dual luciferase ratio (green luciferase fused to IkBa over red control in OCI-Ly3 lymphoma cells), 4 h
In short: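 Curves were fitted separately to fusion (green), unfused (red) and ratio luminescence, then classed by r2, magnitude and activity. Cells: OCI-Ly3, 4 h compound plus doxycycline at 37C; 10 uM MG-132 defined full response.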

[1] = measured here: control luc red channel unless noted
[2] = measured here: IkB-luc green channel
[3] = measured here: control luc red channel

## O=C(COc1ccccc1)N(Cc1cccnc1)c1nc2ccc(F)cc2s1
[1]
  AC50: 2.51 µM [rising, partial curve]

## O=C(CN1C(=O)COc2ccc(S(=O)(=O)N3CCOCC3)cc21)N1CCN(c2ccccc2)CC1
[1]
  AC50: 31.6 µM [falling, single point]

## Cc1c(C(=O)OC2CCCC2)[nH]c2c1C(=O)CC(c1ccco1)C2 (stereo unspecified)
[2]
  AC50: 15.8 µM [rising, partial curve]
[3]
  AC50: 1 µM [rising, partial curve]

## COc1ccc(CCNC(=O)C2CCCN(c3nc4c(C)cc(C)cc4s3)C2)cc1OC (stereo unspecified)
[1]
  AC50: 25.1 µM [falling, partial curve]

## CCOC(=O)c1c(NC(=O)c2cc(C(C)C)on2)sc(C)c1C
[1]
  AC50: 39.8 µM [rising, single point]

## Cc1ccc(S(=O)(=O)C(CNC(=O)c2ccccc2F)c2cccs2)cc1 (stereo unspecified)
[1]
  AC50: 31.6 µM [falling, single point]

## Cc1cccc(CN2CCN(CC(=O)NCc3ccc(Cl)cc3)C2=O)c1
[1]
  AC50: 1.58 µM [falling, partial curve, poor fit]

## Cc1cc(C)cc(NS(=O)(=O)c2ccc3c(c2)CCCN3C(=O)C2CCC2)c1
[1]
  AC50: 39.8 µM [falling, single point]

## CCc1ccc2oc(C(=O)Nc3nonc3CC)c(C)c2c1
[1]
  AC50: 0.2 µM [rising, full curve]

## O=C(Nc1ccc(Br)cc1F)c1ncoc1-c1ccco1
[1]
  AC50: 0.0126 µM [rising, full curve, poor fit]

## N#C/C(C(=O)N1CCOCC1)=C1\Nc2ccccc2S1
[1]
  AC50: 1.58 µM [falling, full curve]

## CCOc1ccccc1NS(=O)(=O)c1ccc(-c2cnc(C3CC3)o2)cc1
[2]
  AC50: 0.794 µM [rising, full curve, poor fit]
[3]
  AC50: 1.26 µM [rising, partial curve]

## COC(=O)CSc1nsc(SCC(=O)OC)c1C#N
[1]
  AC50: 25.1 µM [falling, single point]

## Cc1c(Cl)cccc1NC(=O)c1ncn(-c2ccccc2)n1
[1]
  AC50: 1.58 µM [falling, full curve]

## CC(=O)Nc1ccc(NC(=O)c2oc3ccc4c(c3c2C)C(=O)CC(C)(C)O4)cc1
[1]
  AC50: 25.1 µM [falling, partial curve]

## O=c1c(N2CCc3ccccc3C2)csc2ccccc12
[1]
  AC50: 3.98 µM [falling, partial curve]

## O=C(NCCc1ccccc1)c1ccc2c(c1)N(Cc1ccccc1F)C(=O)c1ccccc1S2=O (stereo unspecified)
[1]
  AC50: 20 µM [rising, single point]

## CCn1cc(C(=O)Nc2cc3c(cc2NC(C)=O)OCCO3)c(=O)c2ccc(C)nc21
[1]
  AC50: 15.8 µM [rising, partial curve, poor fit]

## CCOc1ccc(-c2nc3c(c(SCC(=O)N4CCCCC4)n2)Cc2ccccc2O3)cc1
[1]
  AC50: 39.8 µM [falling, single point]

## O=C(C1CCCN(S(=O)(=O)c2ccc(Br)s2)C1)N1CCN(c2ccccc2)CC1 (stereo unspecified)
[1]
  AC50: 20 µM [falling, partial curve]

## CC(=O)N1CCCc2cc(S(=O)(=O)N3CCCC(C(=O)Nc4cc(Cl)ccc4C)C3)ccc21 (stereo unspecified)
[1]
  AC50: 0.158 µM [falling, full curve, poor fit]

## C=Cc1ccc(Cn2c(C(=O)O)c(CNCc3ccccc3)c3ccc(C)cc32)cc1
[1]
  AC50: 25.1 µM [falling, partial curve]

## CCCCN(C)C(=O)C1CCC(CNS(=O)(=O)c2ccc(Cl)cc2)CC1 (stereo unspecified)
[1]
  AC50: 20 µM [falling, partial curve, poor fit]

## O=C(Cn1ncc2c1-c1ccccc1OC2)Nc1ccc(Cl)cn1
[1]
  AC50: 20 µM [falling, partial curve]

## Cc1ccc(CS(=O)(=O)c2ncc(Cl)c(C(=O)Nc3nc4ccc(F)cc4s3)n2)cc1
[1]
  AC50: 7.94 µM [falling, full curve]

## COC(=O)[C@H]1[C@H]2C[C@H]3c4[nH]c5ccccc5c4CCN3C[C@@H]2CC[C@@H]1O
[1]
  AC50: 31.6 µM [rising, partial curve] [measured here: IkB-luc green channel]

## Cc1oc(-c2cccc(Cl)c2)nc1CN1CCCC(C(=O)NCc2ccco2)C1 (stereo unspecified)
[1]
  AC50: 20 µM [falling, single point]

## Cc1ccc(NS(=O)(=O)c2ccc3c(c2)CCCN3C(=O)C2CCC2)cc1Cl
[1]
  AC50: 31.6 µM [falling, partial curve]

## Nc1c(C(=O)Nc2ccc(C(=O)O)cc2)sc2nc3c(cc12)CCCC3
[1]
  AC50: 0.251 µM [falling, full curve]

## C=CCn1c(=O)c2ccccc2n2c(SC(C)C(=O)Nc3nc(-c4ccccc4)cs3)nnc12 (stereo unspecified)
[1]
  AC50: 7.94 µM [falling, partial curve]

## Cc1nc2nncn2c(NCc2ccc(F)cc2)c1C
[1]
  AC50: 10 µM [falling, partial curve]

## O=C(NCc1ccc2c(c1)CCN2C(=O)c1ccc(Cl)cc1)c1cccc(F)c1
[1]
  AC50: 25.1 µM [falling, single point]

## O=C(Nc1nnc(S(=O)(=O)Nc2ccccc2)s1)c1ccccc1Cl
[1]
  AC50: 15.8 µM [falling, single point]

## Cc1cccc(CNC(=O)CCn2ccc3cc(S(=O)(=O)N4CCCC4)ccc32)c1
[1]
  AC50: 39.8 µM [falling, single point]

## COc1ccc(OC)c(CCNC(=O)c2cnn(-c3ccccc3)c2C2CCN(C(=O)OC(C)(C)C)CC2)c1
[1]
  AC50: 25.1 µM [falling, partial curve]

## O=c1c(N2CCN(c3cccc(C(F)(F)F)c3)CC2)csc2ccc(Cl)cc12
[1]
  AC50: 10 µM [falling, partial curve]

## COC(=O)c1cc2oc3ccccc3c2n1Cc1cc(C)ccc1C
[1]
  AC50: 0.00501 µM [rising, full curve, poor fit]

## O=C1CC(c2ccccc2)Cc2[nH]c(=O)c(-c3nc(-c4ccc(Cl)cc4)cs3)cc21 (stereo unspecified)
[1]
  AC50: 15.8 µM [falling, partial curve]

## CCN1CCN(C(c2cccc(F)c2)c2c(O)cc(C)n(Cc3ccco3)c2=O)CC1 (stereo unspecified)
[1]
  AC50: 25.1 µM [falling, partial curve]

Reference: PubChem BioAssay AID445 (National Center for Advancing Translational Sciences (NCATS), 2006)
